Record: PubChem BioAssay AID743458 (Peter MacCallum Cancer Centre, 2014)
Test: 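Find knock-downs that make vorinostat-resistant colon cancer cells sensitive again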 (follow-up of hits). System: human HCT116-VR colon cancer cells made resistant to vorinostat. Reagents: single siRNA or pool against human genes, 25 nM per single siRNA. Timing: about 72 h after transfection, including 24 h of drug. Treatment: vorinostat, 2.5 µM final, for 24 h. Measurement: 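Cell viability by fluorescence and apoptosis by caspase 3/7 luminescence under vorinostat, background-corrected, averaged across two plate copies and given as fold change versus mock transfection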. Direction: viability relative to mock: higher = more living cells than mock; caspase activity relative to mock: higher = more apoptosis than mock. Call rule: 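Active means a reduced-viability or caspase-activation class, anything else inactive; classes could only be given to wells that looked healthy when left untreated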.
In all, the deposit lists about 1,800 reagents; shown is an unselected part. Of all reagents, 732 (41%) got an active call. 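Calls are per siRNA reagent; a gene was deemed confirmed only if most of its four siRNAs scored.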 The numbers tell different reagents against one gene apart. No sequences are given here.

| viability relative to mock | caspase activity relative to mock | viability hit class | caspase hit class | outcome | gene | reagent |
| --- | --- | --- | --- | --- | --- | --- |
| 0.39 | 2.94 | reduced viability | caspase activation | active | TGM5 | 1 |
| 0.84 | 1.05 | no change | no change | inactive | TGM5 | 2 |
| 0.79 | 2.57 | no change | no change | inactive | TGM5 | 3 |
| 0.84 | 3.35 | no change | caspase activation | active | TGM5 | 4 |
| 0.62 | 4.03 | no change | caspase activation | active | LRP3 | 1 |
| 0.86 | 3.26 | no change | caspase activation | active | LRP3 | 2 |
| 0.59 | 4.96 | no change | caspase activation | active | LRP3 | 3 |
| 0.49 | 2.45 | reduced viability | no change | active | LRP3 | 4 |
| 0.56 | 1.82 | reduced viability | no change | active | RBM42 | 1 |
| 0.64 | 0.7 | no change | no change | inactive | RBM42 | 2 |
| 0.52 | 1.84 | reduced viability | no change | active | RBM42 | 3 |
| 0.5 | 1.52 | reduced viability | no change | active | RBM42 | 4 |
| 1 | 1.39 | no change | no change | inactive | HHEX | 1 |
| 1 | 1.9 | no change | no change | inactive | HHEX | 2 |
| 0.86 | 2.11 | no change | no change | inactive | HHEX | 3 |
| 0.88 | 4.66 | no change | caspase activation | active | HHEX | 4 |
| 1.02 | 1.95 | no change | no change | inactive | SALL1 | 1 |
| 0.86 | 2.83 | no change | caspase activation | active | SALL1 | 2 |
| 0.4 | 0.94 | reduced viability | no change | active | SALL1 | 3 |
| 0.76 | 1.5 | no change | no change | inactive | SALL1 | 4 |
| 0.3 | 4.26 | reduced viability | caspase activation | active | MIIP | 1 |
| 0.54 | 4.12 | reduced viability | caspase activation | active | MIIP | 2 |
| 0.91 | 1.03 | no change | no change | inactive | MIIP | 3 |
| 0.83 | 0.9 | no change | no change | inactive | MIIP | 4 |
| 0.64 | 4.55 | no change | caspase activation | active | UFSP1 | 1 |
| 0.7 | 2.47 | no change | no change | inactive | UFSP1 | 2 |
| 0.91 | 1.47 | no change | no change | inactive | UFSP1 | 3 |
| 0.92 | 1.41 | no change | no change | inactive | UFSP1 | 4 |

Ordered by “caspase activity relative to mock” (highest first): some entries from above.
| viability relative to mock | caspase activity relative to mock | viability hit class | caspase hit class | outcome | gene | reagent |
| --- | --- | --- | --- | --- | --- | --- |
| 0.64 | 4.55 | no change | caspase activation | active | UFSP1 | 1 |
| 0.3 | 4.26 | reduced viability | caspase activation | active | MIIP | 1 |
| 0.54 | 4.12 | reduced viability | caspase activation | active | MIIP | 2 |
| 0.86 | 2.83 | no change | caspase activation | active | SALL1 | 2 |
| 1.02 | 1.95 | no change | no change | inactive | SALL1 | 1 |
| 0.76 | 1.5 | no change | no change | inactive | SALL1 | 4 |
| 0.91 | 1.03 | no change | no change | inactive | MIIP | 3 |
| 0.4 | 0.94 | reduced viability | no change | active | SALL1 | 3 |
| 0.83 | 0.9 | no change | no change | inactive | MIIP | 4 |

Continued.
| viability relative to mock | caspase activity relative to mock | viability hit class | caspase hit class | outcome | gene | reagent |
| --- | --- | --- | --- | --- | --- | --- |
| 0.18 | 2.44 | no change | no change | inactive | REM2 | 1 |
| 0.8 | 1.33 | no change | no change | inactive | REM2 | 2 |
| 0.76 | 2.15 | no change | no change | inactive | REM2 | 3 |
| 0.86 | 0.86 | no change | no change | inactive | REM2 | 4 |
| 0.88 | 4.18 | no change | caspase activation | active | CDK10 | 1 |
| 1.01 | 1.36 | no change | no change | inactive | CDK10 | 2 |
| 0.76 | 1.38 | no change | no change | inactive | CDK10 | 3 |
| 1.1 | 5.01 | no change | caspase activation | active | CDK10 | 4 |
| 0.44 | 4.09 | reduced viability | caspase activation | active | CLTB | 1 |
| 0.82 | 1.9 | no change | no change | inactive | CLTB | 2 |
| 0.68 | 3.36 | no change | caspase activation | active | CLTB | 3 |
| 0.62 | 2.1 | no change | no change | inactive | CLTB | 4 |
| 0.36 | 2.2 | reduced viability | no change | active | CACNA1A | 1 |
| 0.84 | 3.69 | no change | caspase activation | active | CACNA1A | 2 |
| 0.82 | 0.88 | no change | no change | inactive | CACNA1A | 3 |
| 0.98 | 1.19 | no change | no change | inactive | CACNA1A | 4 |
| 0.26 | 2.91 | reduced viability | caspase activation | active | DHDH | 1 |
| 1.04 | 2.28 | no change | no change | inactive | DHDH | 2 |
| 0.73 | 0.9 | no change | no change | inactive | DHDH | 3 |
| 0.85 | 1.28 | no change | no change | inactive | DHDH | 4 |
| 0.8 | 1.27 | no change | no change | inactive | KNCN | 1 |
| 1.02 | 1.19 | no change | no change | inactive | KNCN | 2 |
| 0.17 | 3.97 | no change | no change | inactive | KNCN | 3 |
| 0.84 | 1.59 | no change | no change | inactive | KNCN | 4 |
| 0.72 | 1.29 | no change | no change | inactive | PKLR | 1 |
| 0.92 | 1.01 | no change | no change | inactive | PKLR | 2 |
| 0.74 | 6.6 | no change | caspase activation | active | PKLR | 3 |
| 1.08 | 1.36 | no change | no change | inactive | PKLR | 4 |
| 0.68 | 2.19 | no change | no change | inactive | CCNK | 1 |
| 0.53 | 3.58 | reduced viability | caspase activation | active | CCNK | 2 |
| 0.5 | 5.8 | reduced viability | caspase activation | active | CCNK | 3 |
| 0.87 | 1.3 | no change | no change | inactive | CCNK | 4 |
| 0.84 | 2.46 | no change | no change | inactive | SAP130 | 1 |
| 0.42 | 3.76 | reduced viability | caspase activation | active | SAP130 | 2 |
| 0.51 | 4.98 | reduced viability | caspase activation | active | SAP130 | 3 |
| 0.7 | 4.13 | no change | caspase activation | active | SAP130 | 4 |
| 0.7 | 2.77 | no change | caspase activation | active | POLR2J3 | 1 |
| 1 | 1.26 | no change | no change | inactive | POLR2J3 | 2 |
| 0.77 | 1.54 | no change | no change | inactive | POLR2J3 | 3 |
| 0.96 | 1.86 | no change | no change | inactive | POLR2J3 | 4 |
| 0.46 | 4.7 | reduced viability | caspase activation | active | POLR2L | 1 |
| 0.44 | 3.71 | reduced viability | caspase activation | active | POLR2L | 2 |
| 0.68 | 3.21 | no change | caspase activation | active | POLR2L | 3 |
| 0.34 | 4.58 | reduced viability | caspase activation | active | POLR2L | 4 |
| 0.22 | 3.17 | reduced viability | caspase activation | active | CFHR1 | 1 |
| 0.88 | 1.42 | no change | no change | inactive | CFHR1 | 2 |
| 0.9 | 1.22 | no change | no change | inactive | CFHR1 | 3 |
| 0.97 | 1.04 | no change | no change | inactive | CFHR1 | 4 |
